Experimental data as given in patent US9149472B2, “Controlled release compositions for treatment of cognitive, emotional and mental ailments and disorders” (priority 2004, dated 2015).

Test system: symptoms of cognitive ailments
Conditions: Patient 3; one 10 mg daily in the morning

For CC(C)(O)c1ccccc1CC[C@@H](SCC1(CC(=O)[O-])CC1)c1cccc(/C=C/c2ccc3ccc(Cl)cc3n2)c1.[Na+] [montelukast sodium], the “focus and concentration at once daily dose” value was “mild improvement in focus and concentration”.
